This is one part of the list.

Protein sequences, listed by entry. Tags and fused reporters are not part of them.
UniProt Q0JBA9, entry or part of it: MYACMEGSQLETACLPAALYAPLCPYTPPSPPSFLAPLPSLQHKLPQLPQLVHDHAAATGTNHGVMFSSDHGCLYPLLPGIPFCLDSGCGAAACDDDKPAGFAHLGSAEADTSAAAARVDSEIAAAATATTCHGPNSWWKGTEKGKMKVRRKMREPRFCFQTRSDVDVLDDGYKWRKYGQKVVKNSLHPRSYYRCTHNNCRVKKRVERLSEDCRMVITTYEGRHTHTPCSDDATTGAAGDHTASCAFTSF

The test has as its target OsWRKY34 (Oryza sativa, UniProt Q0JBA9 1-250). Put plainly: protein-binding microarray (RPBM); PBS, 2% BSA, 51.3 ng/ul salmon testes DNA, 50 uM zinc acetate, 200 nM TF, 25 C, 1 h; high values mean tight binding. The settings on record: protein: recombinant; tags: N-terminal polyhistidine and DsRed monomer fusion (pET32a); label: CyDye5-dUTP incorporated in the synthesized complementary strand; 3' TTTTT single-stranded linker to array surface; dsDNA, one strand shown. An outline of the steps: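 The binding signal is fluorescence intensity per array feature (arbitrary units). Readings came from an Axon 4000B scanner after a washed, 2% BSA-blocked, double-stranded custom Agilent array had been incubated for 1 h at 25 °C with 200 nM protein and 50 µM zinc acetate. The protein was a Ni–NTA-purified transcription factor fused N-terminally to polyhistidine and DsRed, expressed in E. coli BL21-CodonPlus.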
For “TGTTGTTTTTTTTTGGGTAATCTCTCCAGTTGCAGACTTGCGGAGTCACCTAGTGCAG”, the binding signal was 8120 fluorescence intensity (a.u.).

“ACCTGAGCTTCCGCTCCCTCGCCGGCGACGCCGCGGCGTCCGGAGTCACCTAGTGCAG”: the binding signal is 8870 fluorescence intensity (a.u.).

Consider “GTTTTCCTGTAGTCTTCTCTGTAGCCTGTAGACTTTTTACCGGAGTCACCTAGTGCAG”, for which the binding signal is 12700 fluorescence intensity (a.u.).

Consider “AGCAAGCTCTACCGCCACTGCCGCGCGGCTGTTCTTGCTTCGGAGTCACCTAGTGCAG”, for which the binding signal is 10400 fluorescence intensity (a.u.).

Regarding “TCGCTGCTTCACCGATGGAACTATTTCTTTTGTCCTTCATCGGAGTCACCTAGTGCAG”, the binding signal was 11400 fluorescence intensity (a.u.).

As for “AATGTATGACGCCGTTGACTTTTTATCAAACGTTTGACCACGGAGTCACCTAGTGCAG”, the binding signal is 34800 fluorescence intensity (a.u.).

“TGCTTCTTTTTCCCACATTCTCTCATGGATATCGATCCAGCGGAGTCACCTAGTGCAG”: the binding signal is 9620 fluorescence intensity (a.u.).

Take “CACTGGTCGTACCCGTGCGCCGCACTGCGTCGCGCCACGCCGGAGTCACCTAGTGCAG”: the binding signal is 8290 fluorescence intensity (a.u.).

In the case of “TGTCTGAGCGACATAAATCATATTGCCTACTTTCTCCGTACGGAGTCACCTAGTGCAG”, the binding signal is 8320 fluorescence intensity (a.u.).

Consider “GTCAAAGCGTCTTCTAGTATGAAATGGGGTTCTTCAGTACCGGAGTCACCTAGTGCAG”, for which the binding signal was 8610 fluorescence intensity (a.u.).

“TTTTCTTTATTTTCATATGAGATCTCTCTGTTTTAGAATACGGAGTCACCTAGTGCAG”: the binding signal is 9240 fluorescence intensity (a.u.).

“GTCAGGTGGCGGCGGCGGCGGTGGTGGCGGTGGAGGTGGACGGAGTCACCTAGTGCAG”: the binding signal is 14400 fluorescence intensity (a.u.).

With “TTTCCATTGTCCTCCGCGCCGCTCACCGACCTCGACGGCGCGGAGTCACCTAGTGCAG”, the binding signal is 8940 fluorescence intensity (a.u.).

On to “GCCGTGGTTCGATCGGGTGGCGGGTGGTTTTCCATCGGTCCGGAGTCACCTAGTGCAG”, for which the binding signal is 8750 fluorescence intensity (a.u.).

Consider “TCTCTCTCCTCTCCTATTCTCTCTCGTTCTCCTCTCTGTGCGGAGTCACCTAGTGCAG”, for which the binding signal is 8480 fluorescence intensity (a.u.).

For “ATTCATCACACAACTCATTCGTGGTCTTGCTTGTTTCGATCGGAGTCACCTAGTGCAG”, the binding signal was 11600 fluorescence intensity (a.u.).

For the sequence “GTCAGTTCGGTTTCTGTTTTTGTGCTATTCGGTGTACGGCCGGAGTCACCTAGTGCAG”, the binding signal is 9450 fluorescence intensity (a.u.).

With “ATATATAGTATATGTTATCAATTAATTGTCGTTTTGTCAACGGAGTCACCTAGTGCAG”, the binding signal was 8780 fluorescence intensity (a.u.).

Take “AGACATCACCATTCACCAATGATAGCAGCAATTCTCTCTTCGGAGTCACCTAGTGCAG”: the binding signal was 9140 fluorescence intensity (a.u.).

For “GAAAAGAGATGGGAGGGATGGCTGATCAGCTCAGCTGGGGCGGAGTCACCTAGTGCAG”, the binding signal was 8090 fluorescence intensity (a.u.).

As to “TTTACCATTTTTGTTCCTTTTCCTTTTCTTAGTTTTTTTACGGAGTCACCTAGTGCAG”, the binding signal was 11300 fluorescence intensity (a.u.).

On to “AAAAAATTTTACAAACCCTGAGTTTCCATATCCAATGTTTCGGAGTCACCTAGTGCAG”, for which the binding signal is 8030 fluorescence intensity (a.u.).

As to “GAAAACCCTGCAATTTCCGAAATTTCGCTTCAATGGGTAACGGAGTCACCTAGTGCAG”, the binding signal was 8280 fluorescence intensity (a.u.).

Consider “ATAGTTGTTGACTAAGTATCCAACTGCCAATGCTATCTCACGGAGTCACCTAGTGCAG”, for which the binding signal is 8320 fluorescence intensity (a.u.).

As to “GGGCTGTTTAGTTTTGGATTGATTGAGCAATGTAATATAACGGAGTCACCTAGTGCAG”, the binding signal was 8130 fluorescence intensity (a.u.).

Regarding “ATCAGGGAGATTGGGGTGTGCCGTGAGTGTGGCTTGCACGCGGAGTCACCTAGTGCAG”, the binding signal was 8690 fluorescence intensity (a.u.).

Consider “TCAATGTTGCACTTCATATCCTTGTACTTACTATGTCTAACGGAGTCACCTAGTGCAG”, for which the binding signal is 8940 fluorescence intensity (a.u.).

Turning to “GTTAGCCGTCCACTTGCGCGGACCACCCATCTAGTTTTAACGGAGTCACCTAGTGCAG”, the binding signal was 9280 fluorescence intensity (a.u.).

Take “GGACCGTCCCTTTTTGGCAGCCCATGTAGTTTTATGCCTCCGGAGTCACCTAGTGCAG”: the binding signal is 10000 fluorescence intensity (a.u.).

Take “CCCCTTCGCGTTTGCGTTTCCTCCGCCTCCTCACTCCAATCGGAGTCACCTAGTGCAG”: the binding signal was 8600 fluorescence intensity (a.u.).

On to “CCTATTATCTTAATGACATTCTCGGATTTAATGTGTGACTCGGAGTCACCTAGTGCAG”, for which the binding signal was 8390 fluorescence intensity (a.u.).

Turning to “ACTAATTCATCCCTGTAACCAGCTACCACTTCAATTTTCCCGGAGTCACCTAGTGCAG”, the binding signal was 11600 fluorescence intensity (a.u.).

As to “GACGACGGCGGCGGGAGCAATCCGCGGCGACGGGGCGGGGCGGAGTCACCTAGTGCAG”, the binding signal is 9170 fluorescence intensity (a.u.).

Take “ATAAACTTACAAATGGCTACCTTTTTGCATCTGCTTTTTTCGGAGTCACCTAGTGCAG”: the binding signal is 9130 fluorescence intensity (a.u.).

Consider “TCTCCTTCCGCGACGTGCTCAACATCCTCCATAACCTGCACGGAGTCACCTAGTGCAG”, for which the binding signal is 9760 fluorescence intensity (a.u.).

In the case of “TGTTGTTTTTTATGTGTGAACCTCTTTGATCTCAATGCAACGGAGTCACCTAGTGCAG”, the binding signal is 8510 fluorescence intensity (a.u.).

As for “TCCTGATGCCGCCACCACCTCCTTCGCTGTTACCACCTCTCGGAGTCACCTAGTGCAG”, the binding signal is 9700 fluorescence intensity (a.u.).

Consider “TCACCACCACCAATGCATGCAAACTCAACCAGCAGTCTCGCGGAGTCACCTAGTGCAG”, for which the binding signal is 8360 fluorescence intensity (a.u.).

With “ACGCTTTTCAAACTGCTAAACGGTGTATTTTGTGCGAAACCGGAGTCACCTAGTGCAG”, the binding signal is 9150 fluorescence intensity (a.u.).

Turning to “GCCGTCCGAACAAAGCCAATATAGGAGTATCTTTTATCTTCGGAGTCACCTAGTGCAG”, the binding signal is 10100 fluorescence intensity (a.u.).

For “TCCCTTTCAACATGGTTCGTGCTACGATGCGATCTCATCACGGAGTCACCTAGTGCAG”, the binding signal is 9240 fluorescence intensity (a.u.).

Take “TCTCAATCCGACGGCCCACTTCGCCATTTAGGCCAATTTTCGGAGTCACCTAGTGCAG”: the binding signal is 10500 fluorescence intensity (a.u.).

Turning to “AGTTTTATATAGGGTGTTGCATGGGGTGTTTGGACATTAACGGAGTCACCTAGTGCAG”, the binding signal is 11800 fluorescence intensity (a.u.).

With “AATATCATCCGTGTCACTACCTAGCTCCTGCATGCTCTGCCGGAGTCACCTAGTGCAG”, the binding signal was 8170 fluorescence intensity (a.u.).

For the sequence “TTCGTGTCCACACCCCATCTTTATATGCTATTTTCTCAAACGGAGTCACCTAGTGCAG”, the binding signal was 9170 fluorescence intensity (a.u.).

As for “GATTGGGGAAGCTGGAGTAGGTAAAACAGTACTCATCATACGGAGTCACCTAGTGCAG”, the binding signal is 8570 fluorescence intensity (a.u.).

Turning to “TTTTCGTGTGCCTCCACTTTGGCATCAGATGCGGTTGACTCGGAGTCACCTAGTGCAG”, the binding signal is 9000 fluorescence intensity (a.u.).

With “ATGGATCATGGATGGCTCCCGTTGTCATTGTCGCGTCGTCCGGAGTCACCTAGTGCAG”, the binding signal was 9810 fluorescence intensity (a.u.).

Consider “CACCTCTTCTTGTCATGACTCCTAACAGTCAAGTTCCAACCGGAGTCACCTAGTGCAG”, for which the binding signal is 9160 fluorescence intensity (a.u.).

As to “TGGTTTTGTGATATTATGGATCTAAATATATTGTTTTATGCGGAGTCACCTAGTGCAG”, the binding signal was 8690 fluorescence intensity (a.u.).

For “GGTTGGTCTCTCTCTCCCTCGCCGCGTCCTGCTGGGAAATCGGAGTCACCTAGTGCAG”, the binding signal is 14100 fluorescence intensity (a.u.).

For the sequence “TATACATGTCGGAATCTATCTACGGCCACGCATCTGGAGTCGGAGTCACCTAGTGCAG”, the binding signal was 8820 fluorescence intensity (a.u.).

As for “GTGTTTATGCCTCATCACTAATTAGAATCTTAATTTCTCTCGGAGTCACCTAGTGCAG”, the binding signal is 8090 fluorescence intensity (a.u.).

Regarding “AACCACAGCCGTCCGATCCACACCCCGAGCCGCGCCCGAACGGAGTCACCTAGTGCAG”, the binding signal is 8170 fluorescence intensity (a.u.).

For the origin of these results see PMC7819943, “Rice protein-binding microarrays: a tool to detect cis-acting elements near promoter regions in rice”.
